# According to patent US10905735B2 (priority 2016, dated 2021):
# Some peptides are written in HELM: one residue between dots, names in brackets for other building blocks, links after the first $.
# Test: general procedure: Fmoc solid-phase peptide synthesis; H-Cys(Trt)-2-Chlorotrityl Resin (MRK); Rink Amide-AM Resin, 0.45-0.55 mmol/g (MRG); DCC/HOBt (MRK); HBTU/DIPEA (MRG, lauric acid coupling)
# Details: whole synthesis, scale of the general procedure 0.6 mmol (MRK), 2 mmol (MRG)
substance,measurement,value
"PEPTIDE1{C.Q.H.W.W.H.W.Y.C}$PEPTIDE1,PEPTIDE1,1:R3-9:R3$$$V2.0",final HPLC purity,greater than 99%
